The values that follow come from PubChem BioAssay AID720619 (Broad Institute, 2013).

Molecules are shown by their SMILES. The list shows a part of the results. The main result of the screen is listed elsewhere. These columns were measured beside it and carry no call.

This test in a line: HT-29 colorectal cell cytotoxicity, late-stage follow-up, mechanism study for HRAS target identification, Alamar Blue fluorescence, several timepoints, dry powder (AID 720619). The note with it: HT-29 viability, 8 h treatment, at 35 µM. A general note: The colour change of resazurin is a common sign of viable cells or microbes.
In the case of `COc1ccc(N(C(=O)CCl)C(C(=O)NCCc2ccccc2)c2cccs2)cc1Cl` (stereo not given), the activity, lower = more toxic was -20.4%.
The value for `C#CCCCC(=O)NCCOCCOCCOc1ccc(N(C(=O)CCl)C(C(=O)NCCc2ccccc2)c2cccs2)cc1Cl` (stereo not given) was -14.3%; that for `Cc1onc(C(=O)N2CCN(C(c3ccc(Cl)cc3)c3ccc(Cl)cc3)CC2)c1[N+](=O)[O-]` was -10.9%; that for `CC(C)(C)OC(=O)NCCOCCOCCOc1ccc(N(C(=O)CCl)C(C(=O)NCCc2ccccc2)c2cccs2)cc1Cl` (stereo not given) was -14.4%.
The value for `COC(=O)c1ccc([C@@H]2c3[nH]c4ccccc4c3C[C@@H](C(=O)OC)N2C(=O)CCl)cc1` was -9.45%.
